Results on 31 compounds are retold here after PubChem BioAssay AID192 (DTP/NCI, 2004).

The list does not hold the whole screen: it is rich in T/C values a quarter to a half above the control, in often repeated tests (any T/C) and in doses without a T/C. Further doses and runs are listed elsewhere. T/C gives the treated animals as a percentage of the vehicle group. Some entries give survivors of the animals treated and no T/C: the source holds a T/C of zero for them, seemingly a mark for toxic or unscored doses. Some survivor counts are full or nearly so, which does not show that the dose was tolerated: survival well below the control is almost never listed, so the zero probably covers shortened survival too. Counts of survivors are from the toxicity check (mostly the fifth day) where no day follows; animals may have died later. Schedules are NCI's codes, taken here to give the interval after Q, in days (D) or hours (H), and the number of doses after X. Some structures stand for samples that the source files as different forms (salt, stereo form or complex); doses refer to the form tested. Where survival is the endpoint, this PubChem deposit counts one and a half times the control or more as active, and values a quarter to a half above the control carry no call in these data; other NCI protocols may use other cut-offs.

The test concerns BDF1 mice, B16 melanoma ip, median survival T/C. The experiment in a line: NCI In Vivo Anticancer Drug Screen. Data for tumor model B16 Melanoma (intraperitoneal) in B6D2F1 (BDF1) mice. To be noted: T/C endpoint: median survival time, higher T/C = longer survival. The procedure, abridged:
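Compounds were tested in mice carrying transplantable tumors. Survival or tumor size was recorded, and each value is the treated-group measurement (T) divided by that of the vehicle-treated control group (C).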

The mark [1] stands for this setting: dose: 50.0 mg/kg/injection, schedule: Q01DX009 (ip), vehicle: saline.
Setting [2] is: dose: 100.0 mg/kg/injection, schedule: Q01DX009 (ip), vehicle: Klucel (hydroxypropylcellulose) (HPC).
The mark [3] stands for this setting: dose: 200.0 mg/kg/injection, schedule: Q01DX009 (ip), vehicle: Klucel (hydroxypropylcellulose) (HPC).
[4] abbreviates: dose: 400.0 mg/kg/injection, schedule: Q01DX009 (ip), vehicle: Klucel (hydroxypropylcellulose) (HPC).
Where [5] appears, read: dose: 100.0 mg/kg/injection, schedule: Q01DX009 (ip), vehicle: saline with Tween-80.
The mark [6] stands for this setting: dose: 200.0 mg/kg/injection, schedule: Q01DX009 (ip), vehicle: saline.
The mark [7] stands for this setting: dose: 100.0 mg/kg/injection, schedule: Q01DX009 (ip), vehicle: saline.
[8] abbreviates: dose: 200.0 mg/kg/injection, schedule: Q01DX009 (ip), vehicle: saline with Tween-80.
[9] abbreviates: dose: 400.0 mg/kg/injection, schedule: Q01DX009 (ip), vehicle: saline with Tween-80.
The mark [10] stands for this setting: dose: 12.5 mg/kg/injection, schedule: Q01DX009 (ip), vehicle: saline with Tween-80.

As to `C1CCN(CN2CCCCC2)CC1`, the survivor count under setting [1] is recorded as 10 of 10.

As for `CCO/C=C1\SC(=S)N(c2cccc(C)c2)C1=O`, the survivor count reads like this: under setting [2], 10 of 10; under setting [3], 10 of 10; under setting [4], 8 of 10.

For the compound `CC1(C#N)CCc2c(ccc3ccccc23)C1=O` (stereo unspecified), the survivor count (dose: 200.0 mg/kg/injection, schedule: Q04DX003 (ip), vehicle: other) is reported as 9 of 10 and the survivor count (dose: 200.0 mg/kg/injection, schedule: Q04DX003 (ip), vehicle: saline with Tween-80) is 10 of 10.

Take `O=C(NC(Cc1ccccc1)C(=O)CCl)OCc1ccccc1` (stereo unspecified): the survivor count (dose: 50.0 mg/kg/injection, schedule: Q01DX009 (ip), vehicle: Klucel (hydroxypropylcellulose) (HPC)) was 7 of 10.

Turning to `C=CCCCCCCCCC(=O)N(CCOC)CCOC`, under setting [5], the survivor count was 10 of 10.

On to `O=C(Cl)C1(Br)CC2c3ccccc3C1([N+](=O)[O-])c1ccccc12` (stereo unspecified), for which the survivor count under setting [4] was 10 of 10.

For `Nc1ccn([C@@H](C=O)O[C@@H](C=O)CO)c(=O)n1`, the survivor count under setting [6] is reported as 10 of 10.

In the case of `O=[N+]([O-])c1cc([N+](=O)[O-])c(Nn2c3ccccc3c3ccccc32)c([N+](=O)[O-])c1`, the survivor count under setting [5] is recorded as 1 of 6.

For `CCS(=O)(=O)C(Br)CBr` (stereo unspecified), the survivor count under setting [2] is 7 of 10, the survivor count under setting [3] is 0 of 10 and the survivor count under setting [4] was 0 of 10.

As to `COc1nc(NC(C)C)nc(NC(C)C)n1`, under setting [5], the T/C was 125 % of control.

Take `O=NN(CCCl)C(=O)NC1CCC(=O)NC1=O` (stereo unspecified): the T/C reads like this: (dose: 0.7 mg/kg/injection, schedule: Q01DX009 (ip), vehicle: saline) 136 % of control; (dose: 3.75 mg/kg/injection, schedule: Q01DX001 (ip), vehicle: saline + alcohol) 147 % of control; (dose: 30.0 mg/kg/injection, schedule: Q01DX001 (ip), vehicle: saline + alcohol) 125 % of control. The survivor count is 10 of 10 (dose: 2.4 mg/kg/injection, schedule: Q01DX009 (ip), vehicle: saline); 9 of 10 (dose: 32.0 mg/kg/injection, schedule: Q01DX009 (ip), vehicle: saline with Tween-80); 10 of 10 on day 6 (dose: 60.0 mg/kg/injection, schedule: Q01DX001 (ip), vehicle: saline + alcohol).

With `COc1ccccc1N1C(N)=NC(N)=NC1(C)C`, under setting [7], the survivor count is 4 of 10.

`CN(C)CC(C)(C)CN1c2ccccc2Sc2ccccc21`: the survivor count by setting is: under setting [1], 10 of 10; under setting [7], 8 of 10.

Regarding `CS(C)=O`, the survivor count (dose: 6.0 grams/kg/injection, schedule: Q01DX009 (ip), vehicle: saline) was 10 of 10.

For `CC(C)CC(Br)C(=O)NC(CC(C)C)C(=O)O` (stereo unspecified), the survivor count under setting [8] was 10 of 10.

For the compound `CN1CCC(OC2c3ccccc3CCc3ccccc32)CC1`, under setting [1], the survivor count is recorded as 6 of 10.

Turning to `Cc1ccc(C#N)s1`, for the setting “dose: 50.0 mg/kg/injection, schedule: Q01DX009 (ip), vehicle: other”, the survivor count is reported as 2 of 10.

As to `CN(CO)c1nc(N(C)CO)nc(N(C)CO)n1`, the T/C runs as follows: under setting [1], 146 % of control; under setting [7], 129 % of control. Further, the survivor count runs as follows: under setting [7], 10 of 10; under setting [6], 7 of 10.

Take `COC(=O)C(CCCCN=Cc1ccccc1O)N=Cc1ccccc1O.[Ni]` (stereo unspecified): the survivor count (dose: 50.0 mg/kg/injection, schedule: Q04DX003 (ip), vehicle: saline with Tween-80) was 10 of 10.

For `[CH3][Sn]([CH3])([CH3])[O]C(=O)CCl`, the survivor count is, setting by setting: (dose: 0.38 mg/kg/injection, schedule: Q01DX009 (ip), vehicle: saline) 10 of 10; (dose: 0.75 mg/kg/injection, schedule: Q01DX009 (ip), vehicle: saline) 4 of 10; (dose: 1.5 mg/kg/injection, schedule: Q01DX009 (ip), vehicle: saline) 10 of 10; (dose: 3.0 mg/kg/injection, schedule: Q01DX009 (ip), vehicle: saline) 0 of 10.

Turning to `CNC(=S)N/N=C/c1ccc([N+](=O)[O-])s1`, the survivor count under setting [9] was 10 of 10.

`Nc1ccc(N=Nc2ccccc2)c(N)c1`: the survivor count runs as follows: (dose: 300.0 mg/kg/injection, schedule: Q01DX009 (ip), vehicle: saline with Tween-80) 8 of 10; under setting [4], 10 of 10; under setting [9], 4 of 10.

With `NC(N)=NC1=NC(=O)CS1`, the survivor count under setting [4] is given as 10 of 10.

`Cc1cc(CN)c(C)cc1CN`: the survivor count is given as 10 of 10 (dose: 67.0 mg/kg/injection, schedule: Q01DX009 (ip), vehicle: saline); 10 of 10 under setting [7]; 10 of 10 (dose: 150.0 mg/kg/injection, schedule: Q01DX009 (ip), vehicle: saline).

As to `COC1OC2COC(c3ccccc3)OC2C(O)C1N` (stereo unspecified), the T/C was 144 % of control (dose: 25.0 mg/kg/injection, schedule: Q04DX003 (ip), vehicle: saline with Tween-80) and 147 % of control (dose: 100.0 mg/kg/injection, schedule: Q04DX003 (ip), vehicle: saline with Tween-80).

For the compound `CC(C)C(=O)OCC1OC(n2cnc3c(=S)nc(N)[nH]c32)C(OC(=O)C(C)C)C1OC(=O)C(C)C` (stereo unspecified), the survivor count is, setting by setting: under setting [10], 6 of 6; (dose: 25.0 mg/kg/injection, schedule: Q01DX009 (ip), vehicle: saline with Tween-80) 6 of 6; (dose: 50.0 mg/kg/injection, schedule: Q01DX009 (ip), vehicle: saline with Tween-80) 5 of 6; under setting [5], 6 of 6; under setting [8], 6 of 6; under setting [9], 4 of 6.

In the case of `N=[N+]=CC(=O)OCC(N)C(=O)O` (stereo unspecified), the survivor count by setting is: (dose: 3.1 mg/kg/injection, schedule: Q01DX009 (ip), vehicle: other) 6 of 6; (dose: 6.2 mg/kg/injection, schedule: Q01DX009 (ip), vehicle: other) 6 of 6; (dose: 12.5 mg/kg/injection, schedule: Q01DX009 (ip), vehicle: other) 6 of 6; (dose: 25.0 mg/kg/injection, schedule: Q01DX009 (ip), vehicle: other) 6 of 6; (dose: 25.0 mg/kg/injection, schedule: Q01DX009 (ip), vehicle: saline) 10 of 10; (dose: 30.0 mg/kg/injection, schedule: Q04DX003 (ip), vehicle: water) 6 of 6. Besides, the survivor count was 6 of 6 (dose: 40.0 mg/kg/injection, schedule: Q04DX003 (ip), vehicle: other) and 4 of 6 (dose: 1500.0 micrograms/kg/injection, schedule: Q01DX009 (ip), vehicle: water).

Regarding `COC1C(CO)OC(n2cnc3c(=S)nc(N)[nH]c32)C1O` (stereo unspecified), the T/C under setting [2] is 125 % of control. Also, the survivor count is reported as 10 of 10 under setting [3] and 9 of 10 under setting [4].

Consider `CC(=O)Oc1cc2c3c(c1)CCCN3CCC2`, for which the survivor count is, setting by setting: under setting [10], 8 of 10; (dose: 125.0 micrograms/kg/injection, schedule: Q01DX009 (ip), vehicle: saline with Tween-80) 10 of 10.

For `Nc1nc(N)c2nc(CN(CCO)c3ccc(C(=O)NC(CCC(=O)O)C(=O)O)cc3)cnc2n1` (stereo unspecified), the T/C was 149 % of control (dose: 2.0 mg/kg/injection, schedule: Q01DX009 (ip), vehicle: Klucel (hydroxypropylcellulose) (HPC)) and 142 % of control (dose: 4.0 mg/kg/injection, schedule: Q01DX009 (ip), vehicle: Klucel (hydroxypropylcellulose) (HPC)). Besides, the survivor count runs as follows: (dose: 8.0 mg/kg/injection, schedule: Q01DX009 (ip), vehicle: Klucel (hydroxypropylcellulose) (HPC)) 10 of 10; (dose: 16.0 mg/kg/injection, schedule: Q01DX009 (ip), vehicle: Klucel (hydroxypropylcellulose) (HPC)) 10 of 10.

As for `Cc1ccc(NC(=O)COc2cc(Cl)c(Cl)cc2Cl)c([N+](=O)[O-])c1`, under setting [4], the survivor count was 10 of 10.
